The list shows a part of the results.
Tests used:
Test in all cases: glycan array binding signal (z-score within array); higher = stronger binding
Settings in all cases: glycan notation: IUPAC condensed, linker removed; mutation: R201A
[1] = target: Gal(b1-4)GlcNAc(b1-3)Gal(b1-3)GlcNAc
Summary of the method: (§1)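 From the Consortium for Functional Glycomics database, 3228 arrays were curated, keeping only those whose protein sequence was available. Binding is given as a within-array Z-score averaged across arrays sharing a protein sequence and across linkers. Negative Z-scores can be read as non-binding.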

[2] = target: Gal(b1-4)GlcNAc(b1-3)Gal(b1-4)Glc
Summary of the method: as §1

[3] = target: Gal(b1-4)GlcNAc(b1-3)Gal(b1-4)GlcNAc
Summary of the method: as §1

[4] = target: Gal(b1-4)GlcNAc(b1-3)Gal(b1-4)GlcNAc(b1-2)Man(a1-3)[Gal(b1-4)GlcNAc(b1-3)Gal(b1-4)GlcNAc(b1-2)Man(a1-6)]Man(b1-4)GlcNAc(b1-4)GlcNAc
Summary of the method: as §1

[5] = target: Gal(b1-4)GlcNAc(b1-3)Gal(b1-4)GlcNAc(b1-2)Man(a1-3)[Gal(b1-4)GlcNAc(b1-3)Gal(b1-4)GlcNAc(b1-2)Man(a1-6)]Man(b1-4)GlcNAc(b1-4)[Fuc(a1-6)]GlcNAc
Summary of the method: as §1

[6] = target: Gal(b1-4)GlcNAc(b1-3)Gal(b1-4)GlcNAc(b1-2)[Gal(b1-4)GlcNAc(b1-3)Gal(b1-4)GlcNAc(b1-6)]Man(a1-6)[Gal(b1-4)GlcNAc(b1-3)Gal(b1-4)GlcNAc(b1-2)Man(a1-3)]Man(b1-4)GlcNAc(b1-4)GlcNAc
Summary of the method: as §1

[7] = target: Gal(b1-4)GlcNAc(b1-3)Gal(b1-4)GlcNAc(b1-2)[Gal(b1-4)GlcNAc(b1-3)Gal(b1-4)GlcNAc(b1-6)]Man(a1-6)[Gal(b1-4)GlcNAc(b1-3)Gal(b1-4)GlcNAc(b1-2)Man(a1-3)]Man(b1-4)GlcNAc(b1-4)[Fuc(a1-6)]GlcNAc
Summary of the method: as §1

[8] = target: Gal(b1-4)GlcNAc(b1-3)Gal(b1-4)GlcNAc(b1-3)Gal(b1-4)GlcNAc
Summary of the method: as §1

[9] = target: Gal(b1-4)GlcNAc(b1-3)Gal(b1-4)GlcNAc(b1-3)Gal(b1-4)GlcNAc(b1-2)Man(a1-3)[Gal(b1-4)GlcNAc(b1-3)Gal(b1-4)GlcNAc(b1-3)Gal(b1-4)GlcNAc(b1-2)Man(a1-6)]Man(b1-4)GlcNAc(b1-4)GlcNAc
Summary of the method: as §1

[10] = target: Gal(b1-4)GlcNAc(b1-3)Gal(b1-4)GlcNAc(b1-3)Gal(b1-4)GlcNAc(b1-2)Man(a1-3)[Gal(b1-4)GlcNAc(b1-3)Gal(b1-4)GlcNAc(b1-3)Gal(b1-4)GlcNAc(b1-2)Man(a1-6)]Man(b1-4)GlcNAc(b1-4)[Fuc(a1-6)]GlcNAc
Summary of the method: as §1

[11] = target: Gal(b1-4)GlcNAc(b1-3)Gal(b1-4)GlcNAc(b1-3)Gal(b1-4)GlcNAc(b1-2)[Gal(b1-4)GlcNAc(b1-3)Gal(b1-4)GlcNAc(b1-3)Gal(b1-4)GlcNAc(b1-6)]Man(a1-6)[Gal(b1-4)GlcNAc(b1-3)Gal(b1-4)GlcNAc(b1-3)Gal(b1-4)GlcNAc(b1-2)Man(a1-3)]Man(b1-4)GlcNAc(b1-4)[Fuc(a1-6)]GlcNAc
Summary of the method: as §1

[12] = target: Gal(b1-4)GlcNAc(b1-3)Gal(b1-4)GlcNAc(b1-3)Gal(b1-4)GlcNAc(b1-3)Gal(b1-4)GlcNAc(b1-2)Man(a1-3)[Gal(b1-4)GlcNAc(b1-3)Gal(b1-4)GlcNAc(b1-3)Gal(b1-4)GlcNAc(b1-3)Gal(b1-4)GlcNAc(b1-2)Man(a1-6)]Man(b1-4)GlcNAc(b1-4)GlcNAc
Summary of the method: as §1

[13] = target: Gal(b1-4)GlcNAc(b1-3)Gal(b1-4)GlcNAc(b1-3)Gal(b1-4)GlcNAc(b1-3)Gal(b1-4)GlcNAc(b1-2)Man(a1-3)[Gal(b1-4)GlcNAc(b1-3)Gal(b1-4)GlcNAc(b1-3)Gal(b1-4)GlcNAc(b1-3)Gal(b1-4)GlcNAc(b1-2)Man(a1-6)]Man(b1-4)GlcNAc(b1-4)[Fuc(a1-6)]GlcNAc
Summary of the method: as §1

[14] = target: Gal(b1-4)GlcNAc(b1-3)Gal(b1-4)GlcNAc(b1-3)Gal(b1-4)GlcNAc(b1-3)Gal(b1-4)GlcNAc(b1-2)[Gal(b1-4)GlcNAc(b1-3)Gal(b1-4)GlcNAc(b1-3)Gal(b1-4)GlcNAc(b1-3)Gal(b1-4)GlcNAc(b1-6)]Man(a1-6)[Gal(b1-4)GlcNAc(b1-3)Gal(b1-4)GlcNAc(b1-3)Gal(b1-4)GlcNAc(b1-3)Gal(b1-4)GlcNAc(b1-2)Man(a1-3)]Man(b1-4)GlcNAc(b1-4)[Fuc(a1-6)]GlcNAc
Summary of the method: as §1

[15] = target: Gal(b1-4)GlcNAc(b1-3)Gal(b1-4)GlcNAc(b1-3)Gal(b1-4)GlcNAc(b1-3)Gal(b1-4)GlcNAc(b1-3)Gal(b1-4)GlcNAc(b1-2)Man(a1-3)[Gal(b1-4)GlcNAc(b1-3)Gal(b1-4)GlcNAc(b1-3)Gal(b1-4)GlcNAc(b1-3)Gal(b1-4)GlcNAc(b1-3)Gal(b1-4)GlcNAc(b1-2)Man(a1-6)]Man(b1-4)GlcNAc(b1-4)GlcNAc
Summary of the method: as §1

[16] = target: Gal(b1-4)GlcNAc(b1-3)Gal(b1-4)GlcNAc(b1-3)Gal(b1-4)GlcNAc(b1-3)Gal(b1-4)GlcNAc(b1-3)Gal(b1-4)GlcNAc(b1-2)Man(a1-3)[Gal(b1-4)GlcNAc(b1-3)Gal(b1-4)GlcNAc(b1-3)Gal(b1-4)GlcNAc(b1-3)Gal(b1-4)GlcNAc(b1-3)Gal(b1-4)GlcNAc(b1-2)Man(a1-6)]Man(b1-4)GlcNAc(b1-4)[Fuc(a1-6)]GlcNAc
Summary of the method: as §1

[17] = target: Gal(b1-4)GlcNAc(b1-3)Gal(b1-4)GlcNAc(b1-3)Gal(b1-4)GlcNAc(b1-3)Gal(b1-4)GlcNAc(b1-3)Gal(b1-4)GlcNAc(b1-2)[Gal(b1-4)GlcNAc(b1-3)Gal(b1-4)GlcNAc(b1-3)Gal(b1-4)GlcNAc(b1-3)Gal(b1-4)GlcNAc(b1-3)Gal(b1-4)GlcNAc(b1-6)]Man(a1-6)[Gal(b1-4)GlcNAc(b1-3)Gal(b1-4)GlcNAc(b1-3)Gal(b1-4)GlcNAc(b1-3)Gal(b1-4)GlcNAc(b1-3)Gal(b1-4)GlcNAc(b1-2)Man(a1-3)]Man(b1-4)GlcNAc(b1-4)[Fuc(a1-6)]GlcNAc
Summary of the method: as §1

[18] = target: Gal(b1-4)GlcNAc(b1-3)Gal(b1-4)GlcNAc(b1-3)Gal(b1-4)GlcNAc(b1-3)Gal(b1-4)GlcNAc(b1-3)Gal(b1-4)GlcNAc(b1-3)Gal(b1-4)GlcNAc(b1-2)Man(a1-3)[Gal(b1-4)GlcNAc(b1-3)Gal(b1-4)GlcNAc(b1-3)Gal(b1-4)GlcNAc(b1-3)Gal(b1-4)GlcNAc(b1-3)Gal(b1-4)GlcNAc(b1-3)Gal(b1-4)GlcNAc(b1-2)Man(a1-6)]Man(b1-4)GlcNAc(b1-4)GlcNAc
Summary of the method: as §1

[19] = target: Gal(b1-4)GlcNAc(b1-3)Gal(b1-4)GlcNAc(b1-3)GalNAc
Summary of the method: as §1

B1: OS9 (Arabidopsis thaliana) (protein)
chain: MRGSHHHHHHGMASMTGGQQMGRDLYDDDDKSRLQIFPAHLVGTFSRNNREPKYKIEFLPEDSPFHPGDNLESMVMLDKHGNRFLCYLPKEEKATSGWTSSQQNISTVMMETQQLVKLKTPDELLQPLSEKCLFRQEGWWSYEFCHQKYVRQLHVEDENKIVQEFFLGTFDPEATAAFNQTVSDASTDASQRYHSHVYTNGTTCDLTGSPAEVEVRFVCAETRAMVTSITELSTCKYALTVQCPTLCKHPLFQLEKPVSHTIHCNAIPVEEDATRNKEEQAVDESPKMIADS
**Q.** For B1, which “glycan array binding signal (z-score)” value [1] is on record?
**A.** 0.799

**Q.** And the “glycan array binding signal (z-score)” value [2]?
**A.** -0.35

**Q.** And the “glycan array binding signal (z-score)” value [3]?
**A.** 0.611

**Q.** And the “glycan array binding signal (z-score)” value [4]?
**A.** 0.354

**Q.** What about the “glycan array binding signal (z-score)” value [5] of the same binder?
**A.** 0.84

**Q.** What about the “glycan array binding signal (z-score)” value [6] of the same binder?
**A.** 0.481

**Q.** What about the “glycan array binding signal (z-score)” value [7] of the same binder?
**A.** -0.765

**Q.** What about the “glycan array binding signal (z-score)” value [8] of the same binder?
**A.** 1.08

**Q.** And the “glycan array binding signal (z-score)” value [9]?
**A.** 0.754

**Q.** And the “glycan array binding signal (z-score)” value [10]?
**A.** -0.796

**Q.** What about the “glycan array binding signal (z-score)” value [11] of the same binder?
**A.** -0.082

**Q.** And the “glycan array binding signal (z-score)” value [12]?
**A.** 0.104

**Q.** And the “glycan array binding signal (z-score)” value [13]?
**A.** 0.469

**Q.** And the “glycan array binding signal (z-score)” value [14]?
**A.** -0.076

**Q.** What about the “glycan array binding signal (z-score)” value [15] of the same binder?
**A.** -0.257

**Q.** What about the “glycan array binding signal (z-score)” value [16] of the same binder?
**A.** 0.154

**Q.** What about the “glycan array binding signal (z-score)” value [17] of the same binder?
**A.** -0.061

**Q.** What about the “glycan array binding signal (z-score)” value [18] of the same binder?
**A.** 0.133

**Q.** And the “glycan array binding signal (z-score)” value [19]?
**A.** -0.834

Source: the supplement of paper PMC8728848
